Experimental data from US20230146455A1 (Yuyu Pharma, Inc., priority 2020, published 2023).

What was measured:
Type in all cases: cell-based, human
TNF-alpha = test: Example 9 Luminex, LPS hPBMCs: TNF-alpha
Experimental: (§1) Treatment Human PBMCs were pretreated with YY-101, YDE-011 and YDE-043 or reference compound; Xiidra® at various concentration (ranging from 1 nM to 100 uM) for 2 h before stimulation. An equal volume of 0.5% DMSO was used as a vehicle control. Then, the cells were treated with LPS at 5 ug/ml. The supernatants from treated cells were harvested at 24 h and placed in a 96 well for Luminex cytokine & chemokine profiling using a Luminex 200 multiplex assay (Luminex; R&D system, USA).
(§2) The main study arm with triplicate wells per group in a 24-well plate: • 1. Blank • 2. PBMC: 0.5% DMSO • 3. PBMC+LPS (5 ug/ml) • 4. PBMC+YY-101 100 uM • 5. PBMC+YY-101 10 uM • 6. PBMC+YY-101 1 uM • 7. PBMC+YY-101 0.1 uM • 8. PBMC+YY-101 0.01 uM • 9. PBMC+LPS (5 ug/ml)+Xiidra®100 uM • 10. PBMC+LPS (5 ug/ml)+Xiidra® 10 uM • 11. PBMC+LPS (5 ug/ml)+Xiidra® 1 uM • 12. PBMC+LPS (5 ug/ml)+Xiidra®0.1 uM • 13. PBMC+LPS (5 ug/ml)+Xiidra®0.01 uM • 14. PBMC+LPS (5 ug/ml)+Xiidra®0.001 uM • 15. PBMC+LPS (5 ug/ml)+YY-101 100 uM • 16. PBMC+LPS (5 ug/ml)+YY-101 10 uM • 17. PBMC+LPS (5 ug/ml)+YY-101 1 uM • 18. PBMC+LPS (5 ug/ml)+YY-101 0.1 uM • 19. PBMC+LPS (5 ug/ml)+YY-101 0.01 uM • 20. PBMC+LPS (5 ug/ml)+YY-101 0.001 uM • 21. PBMC+LPS (5 ug/ml)+YDE-011 100 uM • 22. PBMC+LPS (5 ug/ml)+YDE-011 10 uM • 23. PBMC+LPS (5 ug/ml)+YDE-011 1 uM • 24. PBMC+LPS (5 ug/ml)+YDE-011 0.1 uM • 25. PBMC+LPS (5 ug/ml)+YDE-011 0.01 uM • 26. PBMC+LPS (5 ug/ml)+YDE-011 0.001 uM • 27. PBMC+LPS (5 ug/ml)+YDE-043 100 uM • 28. PBMC+LPS (5 ug/ml)+YDE-043 10 uM • 29. PBMC+LPS (5 ug/ml)+YDE-043 1 uM • 30. PBMC+LPS (5 ug/ml)+YDE-043 0.1 uM • 31. PBMC+LPS (5 ug/ml)+YDE-043 0.01 uM • 32. PBMC+LPS (5 ug/ml)+YDE-043 0.001 uM
(§3) Multiplex assay was used to measure 30 cytokines and chemokines. The 1:2, 1:10 and 1:200 diluted cell supernatant and serial dilution of the standard were dispensed into a 96 well plate at 50 ul/well. Then, the pre-mixed cocktail of antibody-coated magnetic beads was dispensed at 50 ul/well and incubated at room temperature for 2 h in a horizontal orbital microplate shaker at 800±500 rpm. The beads were washed using a magnetic device to prevent loss. The biotin-antibody was dispensed in 50 ul of each well and incubated at room temperature for 1 h in a shaker at 800±500 rpm. After washing, streptavidin-PE was added at 50 ul/well and incubated at room temperature for 30 min in a shaker under the same conditions. Finally, after washing, wash buffer (100 ul/well) was added to the plate and incubated in a shaker for 2 min. The Luminex™ 200 setting were set according to the manufacturer's protocol. The data was calculated with a standard five-parameter logistic nonlinear regression analysis of the data (xPonent software 4.2, USA). The levels of cytokine/chemokine are normalized to the live cell counts (1×10^5 cells/mL) and presented as concentrations per mL (pg/mL or ng/mL).

CCL3/MIP-1 alpha = test: Example 9 Luminex, LPS hPBMCs: CCL3/MIP-1 alpha
Experimental: as §1, §2, §3

IFN-gamma = test: Example 9 Luminex, LPS hPBMCs: IFN-gamma
Experimental: as §1, §2, §3

MMP-9 = test: Example 9 Luminex, LPS hPBMCs: MMP-9
Experimental: as §1, §2, §3

[1] = PBMC + LPS(5 ug/ml) + test article 0.001 uM, Mean
[2] = PBMC + LPS(5 ug/ml) + test article 0.01 uM, Mean
[3] = PBMC + LPS(5 ug/ml) + test article 0.1 uM, Mean
[4] = PBMC + LPS(5 ug/ml) + test article 1 uM, Mean
[5] = PBMC + LPS(5 ug/ml) + test article 10 uM, Mean
[6] = PBMC + LPS(5 ug/ml) + test article 100 uM, Mean

CC(C)C[C@H](NC(=O)[C@H](CCC(N)=O)NC(=O)CNC(=O)[C@@H]1C[C@@H](O)CN1)C(=O)NCC(=O)O [YDE-043] (H-[Hyp]GQLG-OH; N-terminus and C-terminus assumed)
MFI, Bead name: TNF-alpha (TNF-alpha; [1]): 454.2
MFI, Bead name: TNF-alpha (TNF-alpha; PBMC + LPS(5 ug/ml) + test article 0.001 uM, individual replicates (1st, 2nd, 3rd)): 428.5 and 481.0 and 453.0
MFI, Bead name: TNF-alpha (TNF-alpha; [2]): 455.0
MFI, Bead name: TNF-alpha (TNF-alpha; PBMC + LPS(5 ug/ml) + test article 0.01 uM, individual replicates (1st, 2nd, 3rd)): 440.0 and 453.5 and 471.5
MFI, Bead name: TNF-alpha (TNF-alpha; [3]): 452.2
MFI, Bead name: TNF-alpha (TNF-alpha; PBMC + LPS(5 ug/ml) + test article 0.1 uM, individual replicates (1st, 2nd, 3rd)): 430.5 and 457.0 and 469.0
MFI, Bead name: TNF-alpha (TNF-alpha; [4]): 432.7
MFI, Bead name: TNF-alpha (TNF-alpha; PBMC + LPS(5 ug/ml) + test article 1 uM, individual replicates (1st, 2nd, 3rd)): 456.0 and 391.0 and 451.0
MFI, Bead name: TNF-alpha (TNF-alpha; [5]): 428.3
MFI, Bead name: TNF-alpha (TNF-alpha; PBMC + LPS(5 ug/ml) + test article 10 uM, individual replicates (1st, 2nd, 3rd)): 404.0 and 429.0 and 452.0
MFI, Bead name: TNF-alpha (TNF-alpha; [6]): 311.5
MFI, Bead name: TNF-alpha (TNF-alpha; PBMC + LPS(5 ug/ml) + test article 100 uM, individual replicates (1st, 2nd, 3rd)): 330.0 and 293.0
MFI (CCL3/MIP-1 alpha; [1]): 151.5
MFI (CCL3/MIP-1 alpha; PBMC + LPS(5 ug/ml) + test article 0.001 uM, individual replicates): 139.0 and 163.0 and 152.5
MFI (CCL3/MIP-1 alpha; [2]): 149.2
MFI (CCL3/MIP-1 alpha; PBMC + LPS(5 ug/ml) + test article 0.01 uM, individual replicates): 145.5 and 153.5 and 148.5
MFI (CCL3/MIP-1 alpha; [3]): 139.3
MFI (CCL3/MIP-1 alpha; PBMC + LPS(5 ug/ml) + test article 0.1 uM, individual replicates): 134.0 and 138.5 and 145.5
MFI (CCL3/MIP-1 alpha; [4]): 139.8
MFI (CCL3/MIP-1 alpha; PBMC + LPS(5 ug/ml) + test article 1 uM, individual replicates): 152.5 and 110.5 and 156.5
MFI (CCL3/MIP-1 alpha; [5]): 137.8
MFI (CCL3/MIP-1 alpha; PBMC + LPS(5 ug/ml) + test article 10 uM, individual replicates): 133.5 and 131.5 and 148.5
MFI (CCL3/MIP-1 alpha; [6]): 144.5
MFI (CCL3/MIP-1 alpha; PBMC + LPS(5 ug/ml) + test article 100 uM, individual replicates): 152.5 and 136.5
MFI (Bead name: IFN-gamma) (IFN-gamma; [1]): 208.0
MFI (Bead name: IFN-gamma) (IFN-gamma; PBMC + LPS(5 ug/ml) + test article 0.001 uM, single replicates): 208.5 and 230.0 and 185.5
MFI (Bead name: IFN-gamma) (IFN-gamma; [2]): 202.8
MFI (Bead name: IFN-gamma) (IFN-gamma; PBMC + LPS(5 ug/ml) + test article 0.01 uM, single replicates): 207.0 and 190.0 and 211.5
MFI (Bead name: IFN-gamma) (IFN-gamma; [3]): 191.7
MFI (Bead name: IFN-gamma) (IFN-gamma; PBMC + LPS(5 ug/ml) + test article 0.1 uM, single replicates): 216.0 and 148.0 and 211.0
MFI (Bead name: IFN-gamma) (IFN-gamma; [4]): 205.8
MFI (Bead name: IFN-gamma) (IFN-gamma; PBMC + LPS(5 ug/ml) + test article 1 uM, single replicates): 175.0 and 201.0 and 241.5
MFI (Bead name: IFN-gamma) (IFN-gamma; [5]): 202.5
MFI (Bead name: IFN-gamma) (IFN-gamma; PBMC + LPS(5 ug/ml) + test article 10 uM, single replicates): 199.5 and 199.0 and 209.0
MFI (Bead name: IFN-gamma) (IFN-gamma; [6]): 106.5
MFI (Bead name: IFN-gamma) (IFN-gamma; PBMC + LPS(5 ug/ml) + test article 100 uM, single replicates): 111.0 and 102.0
MMP-9 MFI (MMP-9; PBMC + LPS(5 ug/ml) + 0.001 uM, Mean): 47.7
MMP-9 MFI (MMP-9; PBMC + LPS(5 ug/ml) + 0.001 uM, single replicates): 39.0 and 49.5 and 54.5
MMP-9 MFI (MMP-9; PBMC + LPS(5 ug/ml) + 0.01 uM, Mean): 41.5
MMP-9 MFI (MMP-9; PBMC + LPS(5 ug/ml) + 0.01 uM, single replicates): 40.5 and 41.5 and 42.5
MMP-9 MFI (MMP-9; PBMC + LPS(5 ug/ml) + 0.1 uM, Mean): 39.5
MMP-9 MFI (MMP-9; PBMC + LPS(5 ug/ml) + 0.1 uM, single replicates): 42.5 and 36.5 and 39.5
MMP-9 MFI (MMP-9; PBMC + LPS(5 ug/ml) + 1 uM, Mean): 40.2
MMP-9 MFI (MMP-9; PBMC + LPS(5 ug/ml) + 1 uM, single replicates): 43.5 and 36.5 and 40.5
MMP-9 MFI (MMP-9; PBMC + LPS(5 ug/ml) + 10 uM, Mean): 42.0
MMP-9 MFI (MMP-9; PBMC + LPS(5 ug/ml) + 10 uM, single replicates): 43.5 and 42.5 and 40.0
MMP-9 MFI (MMP-9; PBMC + LPS(5 ug/ml) + 100 uM, Mean): 34.0
MMP-9 MFI (MMP-9; PBMC + LPS(5 ug/ml) + 100 uM, single replicates): 35.5 and 32.5

Where “and” joins values, the source holds several entries; their conditions need not be identical. Equal entries are not always repeated. Where a SMILES comes first, the peptide text is derived from it. [ ]: non-standard residue; d: D form. Hyp = O=C(O)[C@@H]1C[C@@H](O)CN1
